According to patent US5098888A, “New heterocyclic tripeptide compounds” (Adir et Compagnie, priority 1989, dated 1992):
At least one peptide structure holds a part that was inferred or is arguable (an end, a ring closure or a residue).

Tests used:
mice [1] = assay: Oxotremorine-induced tremor in mice; type: in vivo
mice [2] = assay: Interaction with clonidine (cerebral survival time on sudden cardiac arrest caused by MgCl2); type: in vivo; settings: simultaneously with clonidine

Cn1cnc(C[C@H](NC(=O)[C@@H]2CCC(=O)N2)C(=O)N2[C@H]3CC[C@H](C3)[C@H]2C(N)=O)c1 [Example 1, (S)PyroGlu-(S)(N^.tau. -Me)His-(1S,3S,4R)ABH-NH2]
boosting of the tremor (mice [1]; 3 mg/kg ip): +60% | boosting of the tremor (mice [1]; 10 mg/kg ip 30 minutes before oxotremorine 0.5 mg/kg ip, measured at peak of action): +90% | boosting effect 60 minutes after the administration of oxotremorine (mice [1]; 60 minutes after oxotremorine, control animals no longer exhibit tremor): still manifested | boosting of the tremor (mice [1]; administered orally (Example 1: 10 mg/kg)): effect identical to that observed when administered ip at a dose of 3 mg/kg | boosting effect in the presence of scopolamine (mice [1]; scopolamine 0.01 mg/kg): disappears | antagonism of the effect of clonidine (mice [2]; 0.3 mg/kg ip): -20% | antagonism of the effect of clonidine (mice [2]; 1 mg/kg ip): -70%
